Measured values as given in publication PMC4534774.
These are yes or no findings as the source states them, for the method shown. Binding seen in cells or lysates may run through a third protein. Some entries that bind do so weakly or less than the wild type.

T1: vitamin D receptor (human (endogenous in HT29)) (UniProt P11473)
T1 sequence: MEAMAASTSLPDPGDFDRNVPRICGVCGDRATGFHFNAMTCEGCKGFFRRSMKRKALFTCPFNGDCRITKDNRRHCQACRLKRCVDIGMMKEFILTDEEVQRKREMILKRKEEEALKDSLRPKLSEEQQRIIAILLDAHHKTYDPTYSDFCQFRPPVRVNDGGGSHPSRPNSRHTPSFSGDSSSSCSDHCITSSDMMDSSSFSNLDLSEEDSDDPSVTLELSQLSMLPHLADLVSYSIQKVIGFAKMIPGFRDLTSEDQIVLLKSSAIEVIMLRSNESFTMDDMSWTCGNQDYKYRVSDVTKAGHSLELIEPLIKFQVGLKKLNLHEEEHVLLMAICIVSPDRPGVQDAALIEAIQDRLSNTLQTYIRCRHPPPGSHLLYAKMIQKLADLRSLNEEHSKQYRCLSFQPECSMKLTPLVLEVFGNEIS


Assays:
[1] = biological target: T1, vitamin D receptor (human (endogenous in HT29)); assay: co-IP; anti-VDR (D-6) pre-bound to protein A agarose, overnight immunoprecipitation from extracts of HT29 cells treated with vehicle or 1,25D (100 nM) for 24 h; lysis in 20 mM Tris pH 7.5, 100 mM NaCl, 0.5% NP-40; washes with 200 mM NaCl, 1% NP-40; Western blot for NF-κB subunits
[2] = biological target: FLAG-tagged FBW7, Q969H0; assay: co-IP; anti-Flag (DYDDDK Tag Rabbit) pre-bound to protein A agarose, overnight immunoprecipitation from extracts of HT29 cells transfected with Flag-FBW7, with or without 1,25D; washes with 200 mM NaCl, 1% NP-40; Western blot for NF-κB1 and RELA; controls: control IgG and untransfected cells; conditions: remark: other sources report otherwise

Binder	binding [1]	binding [2]
NF-κB2 p100 (protein, UniProt Q00653-1 1-900) MESCYNPGLDGIIEYDDFKLNSSIVEPKEPAPETADGPYLVIVEQPKQRGFRFRYGCEGPSHGGLPGASSEKGRKTYPTVKICNYEGPAKIEVDLVTHSDPPRAHAHSLVGKQCSELGICAVSVGPKDMTAQFNNLGVLHVTKKNMMGTMIQKLQRQRLRSRPQGLTEAEQRELEQEAKELKKVMDLSIVRLRFSAFLRASDGSFSLPLKPVISQPIHDSKSPGASNLKISRMDKTAGSVRGGDEVYLLCDKVQKDDIEVRFYEDDENGWQAFGDFSPTDVHKQYAIVFRTPPYHKMKIERPVTVFLQLKRKRGGDVSDSKQFTYYPLVEDKEEVQRKRRKALPTFSQPFGGGSHMGGGSGGAAGGYGGAGGGGSLGFFPSSLAYSPYQSGAGPMGCYPGGGGGAQMAATVPSRDSGEEAAEPSAPSRTPQCEPQAPEMLQRAREYNARLFGLAQRSARALLDYGVTADARALLAGQRHLLTAQDENGDTPLHLAIIHGQTSVIEQIVYVIHHAQDLGVVNLTNHLHQTPLHLAVITGQTSVVSFLLRVGADPALLDRHGDSAMHLALRAGAGAPELLRALLQSGAPAVPQLLHMPDFEGLYPVHLAVRARSPECLDLLVDSGAEVEATERQGGRTALHLATEMEELGLVTHLVTKLRANVNARTFAGNTPLHLAAGLGYPTLTRLLLKAGADIHAENEEPLCPLPSPPTSDSDSDSEGPEKDTRSSFRGHTPLDLTCSTKVKTLLLNAAQNTMEPPLTPPSPAGPGLSLGDTALQNLEQLLDGPEAQGSWAELAERLGLRSLVDTYRQTTSPSGSLLRSYELAGGDLAGLLEALSDMGLEEGVRLLRGPETRDKLPSTAEVKEDSAYGSQSVEQEAEKLGPPPEPPGGLCHGHPQPQVH	binds	–
NF-κB1 p105, P19838 1-968 (protein) MAEDDPYLGRPEQMFHLDPSLTHTIFNPEVFQPQMALPTDGPYLQILEQPKQRGFRFRYVCEGPSHGGLPGASSEKNKKSYPQVKICNYVGPAKVIVQLVTNGKNIHLHAHSLVGKHCEDGICTVTAGPKDMVVGFANLGILHVTKKKVFETLEARMTEACIRGYNPGLLVHPDLAYLQAEGGGDRQLGDREKELIRQAALQQTKEMDLSVVRLMFTAFLPDSTGSFTRRLEPVVSDAIYDSKAPNASNLKIVRMDRTAGCVTGGEEIYLLCDKVQKDDIQIRFYEEEENGGVWEGFGDFSPTDVHRQFAIVFKTPKYKDINITKPASVFVQLRRKSDLETSEPKPFLYYPEIKDKEEVQRKRQKLMPNFSDSFGGGSGAGAGGGGMFGSGGGGGGTGSTGPGYSFPHYGFPTYGGITFHPGTTKSNAGMKHGTMDTESKKDPEGCDKSDDKNTVNLFGKVIETTEQDQEPSEATVGNGEVTLTYATGTKEESAGVQDNLFLEKAMQLAKRHANALFDYAVTGDVKMLLAVQRHLTAVQDENGDSVLHLAIIHLHSQLVRDLLEVTSGLISDDIINMRNDLYQTPLHLAVITKQEDVVEDLLRAGADLSLLDRLGNSVLHLAAKEGHDKVLSILLKHKKAALLLDHPNGDGLNAIHLAMMSNSLPCLLLLVAAGADVNAQEQKSGRTALHLAVEHDNISLAGCLLLEGDAHVDSTTYDGTTPLHIAAGRGSTRLAALLKAAGADPLVENFEPLYDLDDSWENAGEDEGVVPGTTPLDMATSWQVFDILNGKPYEPEFTSDDLLAQGDMKQLAEDVKLQLYKLLEIPDPDKNWATLAQKLGLGILNNAFRLSPAPSKTLMDNYEVSGGTVRELVEALRQMGYTEAIEVIQAASSPVKTTSQAHSLPLSPASTRQQIDELRDSDSVCDSGVETSFRKLSFTESLTSGASLLTLNKMPHDYGQEGPLEGKI	–	binds
